Our source for the binding values is patent US20210206842A1.

The target in experiment [1] is VHH FC5. Kind of experiment: SPR (Biacore T200), 1 µM FC5 flowed over captured mAb 3A8. In general terms: SPR reads the build-up and loss of mass on a sensor chip optically.
Experiment [2] concerns the target VHH FC5. Description: SPR, single cycle kinetics, Fc-captured mAb, FC5 flowed, 25 C.
The target of experiment [3] is VHH FC5. Description: SPR, two orientations (Fc-captured mAb; immobilized FC5 with mAb flowed).
Experiment [4] addresses T1, peptide #2b (20 aa) (human).
T1 sequence (peptide): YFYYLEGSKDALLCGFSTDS
Kind of experiment: ELISA on coated P2b, mAb at the dilutions 1:1000, 1:5000 and 1:10000, Abs 450nm. On the technique in general: An ELISA detects its analyte on a solid surface through an enzyme-linked reagent.

For experiment [5], the target named is VHH FC5. Kind of experiment: SPR (Biacore T200), ligand 3A8 captured by anti-mouse IgG, VHH FC5 flowed, 25 °C.

These are yes or no findings as the source states them, for the method shown.

B1: anti-hNav1.7 mAb 3A8 (antibody, V domains shown)
VH: QVQLQQPGAELVKPGASVKLSCKASGYTFTNYWMHWVKQRPGQGLEWIGEINPSNGRANYNEKFKSKATLTVDKSSSTAYMQLSSLTSEDSAVYYCARSPYGYYDYWGQGTTLTVSS
VL: DVLMTQTPLSLPVSLGDQASISCRSSQSLLHSNGNTYFHWYLQKPGQSPKLLIYKVSNRFFGVPDRFSGSGSGTDFTLKISRVEAEDLGVYFCSQITHVPLTFGAGTKLELK
For B1, the binding entry is recorded as “no binding (tested: 1 µM)” in the experiment with VHH FC5 [1]; “no binding” with VHH FC5 [2]; “no binding” in the experiment with VHH FC5 [3]; “no binding (tested: 1:1000 dilution)” in experiment [4]; “no binding (tested: 1 µM (from the legend, not on the sheet))” with VHH FC5 [5].
